Data source: PubChem BioAssay AID1508597 (Cure First, 2020)
Aim: 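Genes whose silencing sensitises or protects ovarian cancer cells against rucaparib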 (primary screen). System: human ovarian carcinoma lines grown from tumours: OCI-P5x (papillary serous) and OCI-C5x (clear cell). Reagent: siRNA pool against human genes, 1.25 pmol siRNA per well. Timing: 72 h or 96 h, depending on the cell culture. Challenge: rucaparib 20 µM (about IC30) or vehicle, present until read-out. Rucaparib or vehicle: Rucaparib. Cell line: OCI-P5x (serous). Detection: 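ATP luminescence measured at 72 or 96 h according to the culture, then normalised and expressed as percent viability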. Reading the numbers: viability, normalised: higher = more viable cells remaining. Hit rule: 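Active when normalised viability falls below 80 percent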. Calls: active = viability under 80%; inactive = viability 80% or more.
Shown is a random part of the about 2,100 reagents, under one of the conditions tested. 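Calls flag viability under 80% in either arm, not effects specific to rucaparib; the reference for percent is not stated.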 A number with no mark means an inactive call. A reagent listed more than once was tested more than once; the source does not tell the runs apart. Not given: the 100% reference.

Gene	technical replicate	viability, normalised (%)
NTHL1	1	102
NTHL1	2	87.4
NTHL1	3	61.1 (active)
MAPKAPK3	1	70.8 (active)
MAPKAPK3	2	55 (active)
MAPKAPK3	3	69.6 (active)
CLDN19	1	49.5 (active)
CLDN19	2	71 (active)
CLDN19	3	56.7 (active)
CSNK2A2	1	94
CSNK2A2	2	100
CSNK2A2	3	123
MIP	1	90.8
MIP	2	114
MIP	3	97.8
GUK1	1	74.8 (active)
GUK1	2	59.9 (active)
GUK1	3	71.9 (active)
CBX6	1	53.9 (active)
CBX6	2	62.7 (active)
CBX6	3	78.2 (active)
UHRF2	1	87.1
UHRF2	2	46.3 (active)
UHRF2	3	89.6
ENPP4	1	29.5 (active)
ENPP4	2	23.9 (active)
ENPP4	3	25.2 (active)
CLDN6	1	86.2
CLDN6	2	106
CLDN6	3	90.5
ERCC4	1	94.3
ERCC4	2	90.5
ERCC4	3	53.7 (active)
FGFR1	1	133
FGFR1	2	130
FGFR1	3	107

Part of the list above, reformatted.
| Gene | technical replicate | viability, normalised (%) |
| --- | --- | --- |
| GUK1 | 1 | 74.8 (active) |
| GUK1 | 2 | 59.9 (active) |
| GUK1 | 3 | 71.9 (active) |
| CBX6 | 1 | 53.9 (active) |
| CBX6 | 2 | 62.7 (active) |
| CBX6 | 3 | 78.2 (active) |
| UHRF2 | 1 | 87.1 |
| UHRF2 | 2 | 46.3 (active) |
| UHRF2 | 3 | 89.6 |

The listing continues:
Gene	technical replicate	viability, normalised (%)
ALK	1	120
ALK	2	135
ALK	3	124
CLDN15	1	83.1
CLDN15	2	77.4 (active)
CLDN15	3	94
TRRAP	1	71.7 (active)
TRRAP	1	56.5 (active)
TRRAP	1	54.2 (active)
TRRAP	2	46.5 (active)
TRRAP	2	77.3 (active)
TRRAP	2	62.6 (active)
TRRAP	3	67.2 (active)
TRRAP	3	72.6 (active)
TRRAP	3	39.7 (active)
BCL3	1	77.6 (active)
BCL3	2	83.1
BCL3	3	65.4 (active)
CAMKV	1	57.4 (active)
CAMKV	2	63.9 (active)
CAMKV	3	67.9 (active)
